Patent US20160083391A1, “TRICYCLIC PIPERAZINE DERIVATIVE” (Sunovion Pharmaceuticals Inc., priority 2014, published 2016)
At least one structure is not confirmed: it was looked up by name or label, or the drawing left a doubt. Values belong to the compound of their own block, whether it stands above or below them.

Tested on: PDE1
Assay: In vitro HTRF PDE1 inhibition assay
Type: biochemical
Conditions: HTRF cGMP assay, 100 nM cyclic GMP, PDE (1A3, 1B or 1C) with calmodulin, 45 minutes at 37° C.; isoform of the tabulated values not stated
From the text: An exemplary procedure for the in vitro Homogenous Time Resolved Fluorescence assay, which can be used to determine the inhibitory action of compounds of the invention toward. PDE1 or its isoforms, follows.
The HTRF PDE1 assay utilized the HTRF (Homogenous Time Resolved Fluorescence) technology, which is based on the competition between unlabeled cyclic nucleotide and cyclic nucleotide labeled with XL665 for the binding to cyclic nucleotide-specific antibody labeled with cryptate. The HTRF signal is thus inversely proportional to the concentration of cyclic nucleotide being measured. Since phosphodiesterases break down cyclic nucleotides the HTRF signal was used to determine PDE activity.
The Cisbio cGMP HTRF assay kit (Cat no: 62GM2PEC) was utilized. Cyclic GMP was diluted to 200 nM in HTRF assay buffer (1 mM CaCl2, 10 mM MgCl2, 10 mM Tris-HCl, 0.1% BSA, pH7.4). 10 μl of compound or DMSO was diluted in 200 nM cyclic GMP solution and added to wells of a 96 well white plate to give 100 nM cyclic GMP in 1% DMSO final concentration. PDE (1A3, 1B or 1C) was diluted to 2× working concentration in HTRF assay buffer with […] Calmodulin, and 10 μl was added to initiate the reaction. The plate was then incubated for 45 minutes at 37° C. d2-Labelled cyclic GMP and anti-cGMP cryptate were diluted in 50 mM phosphate buffer, 0.8M KF, 1% Triton X100, 0.2% BSA, pH7.0. Following incubation 10 μl d2-cGMP, then 10 μl anti cGMP cryptate were added to each well and the plate was incubated for 45 minutes at room temperature. The plate was then read on Perkin Elmer Victor at 2 different FRET readings ex/emm 340 nm/665 nm and 340 nm/615 nm.
Compounds having an IC50 of <1 μM, are denoted as +++. Compounds having an IC50 of 1-10 μM, are denoted as ++. Compounds having an IC50 of >10 μM, are denoted as +.

Structure (SMILES): CC(C)CC1c2nc3c(cnn3C3CCCC3)c(=O)n2CCN1CC(C)C (racemic) [Compound I-58, (±)-1-cyclopentyl-8,9-diisobutyl-6,7,8,9-tetrahydropyrazino[1,2-a]pyrazolo[3,4-d]pyrimidin-4(1H)-one]
IC50: > 10 µM

Structure (SMILES): CC(C)n1ncc2c(=O)n3c(nc21)CN(Cc1cccc(Br)c1)CC3 [Compound I-62, 8-(3-Bromobenzyl)-1-isopropyl-6,7,8,9-tetrahydropyrazino[1,2-a]pyrazolo[3,4-d]pyrimidin-4(1H)-one]
IC50: 1 to 10 µM

Structure (SMILES): CC(C)n1ncc2c(=O)n3c(nc21)CN(Cc1ccccc1Br)CC3 [Compound I-61, 8-(2-Bromobenzyl)-1-isopropyl-6,7,8,9-tetrahydropyrazino[1,2-a]pyrazolo[3,4-d]pyrimidin-4(1H)-one]
IC50: 1 to 10 µM

Further lines, results first:

IC50: 1 to 10 µM
Structure (SMILES): CC(C)n1ncc2c(=O)n3c(nc21)CN(Cc1ccc(Br)cc1)CC3 [Compound I-63, 8-(4-Bromobenzyl)-1-isopropyl-6,7,8,9-tetrahydropyrazino[1,2-a]pyrazolo[3,4-d]pyrimidin-4(1H)-one]

IC50: < 1 µM
Structure (SMILES): O=c1c2cnc(C3CCOC3)n2nc2n1CCN(c1ccc(Cl)cc1)C2 (racemic) [Compound I-230, (±)-7-(4-Chlorophenyl)-3-(tetrahydrofuran-3-yl)-8,9-dihydro-6H-imidazo[5,1-f]pyrazino[2,1-c][1,2,4]triazin-11(7H)-one]
